Experiment [1] has as its target T1, Endogenous FKBP6 (human (endogenous in the Huh7-derived replicon cell line)) (UniProt O75344).
T1 sequence: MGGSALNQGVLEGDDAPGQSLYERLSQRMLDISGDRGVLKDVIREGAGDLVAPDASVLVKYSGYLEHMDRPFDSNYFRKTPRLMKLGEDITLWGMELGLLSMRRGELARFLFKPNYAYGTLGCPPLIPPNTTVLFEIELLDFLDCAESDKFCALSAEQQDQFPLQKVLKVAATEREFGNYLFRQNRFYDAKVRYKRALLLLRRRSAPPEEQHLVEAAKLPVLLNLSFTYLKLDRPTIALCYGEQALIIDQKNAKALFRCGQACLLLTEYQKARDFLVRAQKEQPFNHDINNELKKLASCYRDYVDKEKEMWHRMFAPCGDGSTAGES
Put plainly: co-IP; lysate of the genotype 1b Con1 replicon cell line (clone 9-13); immunoprecipitation with goat anti-FKBP6 IgG, normal goat IgG as control.

Chains of the proteins cited; added tags and fusions are not shown.
UniProt Q14318: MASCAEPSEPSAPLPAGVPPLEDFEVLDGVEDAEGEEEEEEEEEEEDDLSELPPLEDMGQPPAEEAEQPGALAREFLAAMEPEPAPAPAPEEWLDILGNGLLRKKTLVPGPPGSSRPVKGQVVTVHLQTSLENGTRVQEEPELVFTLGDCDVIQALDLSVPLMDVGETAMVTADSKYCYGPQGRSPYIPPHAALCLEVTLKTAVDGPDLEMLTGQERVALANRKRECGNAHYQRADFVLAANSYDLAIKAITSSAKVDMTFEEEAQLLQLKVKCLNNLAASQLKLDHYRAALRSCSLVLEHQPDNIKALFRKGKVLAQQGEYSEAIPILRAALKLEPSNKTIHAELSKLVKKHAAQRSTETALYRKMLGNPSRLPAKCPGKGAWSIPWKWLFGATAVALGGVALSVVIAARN

Experiment [2] concerns the target T2, FLAG-tagged FKBP6 (UniProt O75344).
T2 sequence: T1 sequence
The experiment is described as follows: co-IP; FLAG- and HA-tagged proteins co-expressed in 293T cells, lysed 48 h post-transfection; immunoprecipitation with anti-FLAG or anti-HA antibody, Western blotting. (A western blot detects proteins with antibodies after separation by electrophoresis.)

Experiment [3] deals with FLAG-tagged NS5A (Con1 strain) (hepatitis C virus genotype 1b, strain Con1) (UniProt Q9WMX2). The experiment is described as above.
Experiment [4] addresses T2, FLAG-tagged FKBP6. The experiment is described as follows: co-IP; FLAG- and HA-tagged FKBP6 or FKBP8 co-expressed in 293T cells; 1% Nonidet P-40 lysis buffer (50 mM HEPES pH 7.4, 150 mM NaCl, 0.1 mM EDTA); half of the lysate mixed with DMSO, half with 80 μM DM-CHX; anti-FLAG or anti-HA immunoprecipitation; DM-CHX impaired the complexes.
In the next experiment the target is FLAG-tagged FKBP8 (UniProt Q14318). The experiment is described as above.
For experiment [5], the target named is T3, HA-tagged FKBP6 (UniProt O75344).
T3 sequence: T1 sequence
The experiment is described as follows: co-IP; FLAG- and HA-tagged proteins co-expressed in 293T cells, lysed 48 h post-transfection; immunoprecipitation with anti-FLAG or anti-HA antibody, Western blotting.

Experiment [6] addresses HA-tagged FKBP8 (UniProt Q14318). Described as above.
Experiment [7] has as its target FLAG-tagged NS5A (Con1 strain) (hepatitis C virus genotype 1b, strain Con1) (UniProt Q9WMX2). Described as above. The source holds these as a separate data set.
Experiment [8] concerns the target T2, FLAG-tagged FKBP6. Described as above. This is another data set of the same source.
The next experiment has as its target T4, HA-tagged FKBP5 (UniProt Q13451).
T4 sequence: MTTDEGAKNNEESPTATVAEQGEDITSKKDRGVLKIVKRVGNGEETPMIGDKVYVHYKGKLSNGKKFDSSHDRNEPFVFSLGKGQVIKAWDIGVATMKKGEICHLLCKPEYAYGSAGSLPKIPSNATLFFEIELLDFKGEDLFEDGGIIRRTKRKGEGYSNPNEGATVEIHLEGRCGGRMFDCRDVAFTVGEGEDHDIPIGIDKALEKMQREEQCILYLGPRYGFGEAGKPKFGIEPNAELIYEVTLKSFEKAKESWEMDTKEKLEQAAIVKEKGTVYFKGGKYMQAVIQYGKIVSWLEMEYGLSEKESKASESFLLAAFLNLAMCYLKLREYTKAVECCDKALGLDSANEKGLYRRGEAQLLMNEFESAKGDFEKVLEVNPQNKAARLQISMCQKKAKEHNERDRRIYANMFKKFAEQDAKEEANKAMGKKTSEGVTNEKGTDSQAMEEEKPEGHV
The experiment is described as above.

For experiment [9], the target named is T3, HA-tagged FKBP6. The experiment is described as above. The source holds these as a separate data set.
Experiment [10] deals with HA-tagged FKBP8 (UniProt Q14318). Described as above. The source holds these as a separate data set.

Like-named read-outs stand apart in the source and are kept apart here. These are yes or no findings as the source states them, for the method shown. Binding seen in cells or lysates may run through a third protein. Some binding calls cover weakened binding; strength is not graded here. For some of these results: Tags and fused reporters may be left off the sequences shown.

With “NS5A expressed from the Con1 subgenomic replicon (from UniProt Q9WMX2 1973-2419)”, the binding result in [1] is listed as “binds”.

Take “HA-tagged FKBP8 (from UniProt Q14318 1-412)”: the binding entry (with FLAG-tagged FKBP6 [2]; in experiment [3]; with FLAG-tagged FKBP6 [4]; with FLAG-tagged FKBP8) was “binds” throughout.

On to “FLAG-tagged NS5A (Con1 strain) (from UniProt Q9WMX2 1973-2419)”, for which the binding entry in the experiment with HA-tagged FKBP6 [5] and with HA-tagged FKBP8 [6] was “binds” in each case.

B1: HA-tagged FKBP4 (protein, UniProt Q02790 1-459)
chain: MTAEEMKATESGAQSAPLPMEGVDISPKQDEGVLKVIKREGTGTEMPMIGDRVFVHYTGWLLDGTKFDSSLDRKDKFSFDLGKGEVIKAWDIAIATMKVGEVCHITCKPEYAYGSAGSPPKIPPNATLVFEVELFEFKGEDLTEEEDGGIIRRIQTRGEGYAKPNEGAIVEVALEGYYKDKLFDQRELRFEIGEGENLDLPYGLERAIQRMEKGEHSIVYLKPSYAFGSVGKEKFQIPPNAELKYELHLKSFEKAKESWEMNSEEKLEQSTIVKERGTVYFKEGKYKQALLQYKKIVSWLEYESSFSNEEAQKAQALRLASHLNLAMCHLKLQAFSAAIESCNKALELDSNNEKGLFRRGEAHLAVNDFELARADFQKVLQLYPNNKAAKTQLAVCQQRIRRQLAREKKLYANMFERLAEEENKAKAEASSGDHPTDTEMKEEQKSNTAGSQSQVETEA
As to B1, the binding result in experiment [7] was “no binding”.

B2: HA-tagged FKBP6 (protein, UniProt O75344 1-327)
chain: T1 sequence
As for B2, the binding result (with FLAG-tagged FKBP6 [8]; in experiment [7]; with FLAG-tagged FKBP6 [4]) was “binds” throughout.

B3: FLAG-tagged FKBP6 (protein, UniProt O75344 1-327)
chain: T1 sequence
As to B3, the binding result is recorded as “no binding” with HA-tagged FKBP5, “binds” with HA-tagged FKBP6 [9] and “binds” with HA-tagged FKBP8 [10].

B4: HA-tagged FKBP5 (protein, UniProt Q13451 1-457)
chain: T4 sequence
For B4, the binding entry (in the experiment with FLAG-tagged FKBP6 [8]; in experiment [7]) was “no binding” in each case.

The values are drawn from article PMC4644952.
